Earlier results on one compound are cited in US7361683B2, “Paclitaxel aqueous injection solution and methods for preparing the same” (Yung Shin Pharm. Ind., Co., Ltd, priority 2004, dated 2008).

Each structure is given as a SMILES string.

On to `CC(=O)O[C@H]1C(=O)[C@@]2(C)[C@H]([C@H](OC(=O)c3ccccc3)[C@]3(O)C[C@H](OC(=O)[C@H](O)[C@@H](NC(=O)c4ccccc4)c4ccccc4)C(C)=C1C3(C)C)[C@]1(OC(C)=O)CO[C@@H]1C[C@@H]2O` [Paclitaxel, 5β-20-Epoxy-1,2α,4,7β,10β,13α-hexahydroxytax-11-en-9-on,4,10 diacetate 2-benzate 13-ester with (2R,3S)-N-benzoyl-3-phenylisoserine], for which the solubility in water entry was “less than 0.01 mg/mL”.
